PMC6736360, “P-Glycoprotein–Mediated Efflux Reduces the In Vivo Efficacy of a Therapeutic Targeting the Gastrointestinal Parasite Cryptosporidium” (The Journal of Infectious Diseases, 2019)

Experiment: Caco-2 trans-well apparent permeability assay
Assay type: in vitro ADME
Conditions: human, pH 7.4
Description: To initially characterize the permeability of BKIs 1294, 1369, and 1318, the software MedChem Designer (Simulations +, Lancaster, CA) was used to predict the Peff. The in vitro apparent permeability (Papp) was carried out by Absorption Systems LP (Exton, PA) with a Caco-2 trans-well assay. Caco-2 cells (clone C2BBe1) were obtained from American Type Culture Collection (Manassas, VA) were grown to confluence on collagen-coated, microporous membranes in 12-well assay plates. The permeability assay buffer was Hanks’ balanced salt solution (HBSS) containing 10 mM HEPES and 15 mM glucose at a pH of 7.4. The buffer in the receiver chamber also contained 1% bovine serum albumin. […] The Papp was calculated with equation (1) and the percent recovery with equation (2). […]
where dCr/dt is the slope of the cumulative concentration in the receiver compartment versus time in µM s^-1; Vr is the volume of the receiver compartment in cm^3; Vd is the volume of the donor compartment in cm^3; A is the area of the insert (1.13 cm^2 for 12-well); CA is the average of the nominal dosing concentration and the measured 120 minute donor concentration in µM; CN is the nominal concentration of the dosing solution in µM; Cr^final is the cumulative receiver concentration in µM at the end of the incubation period; Cd^final is the concentration of the donor in µM at the end of the incubation period. […]

CC(C)NCC(O)COc1ccc(CC(N)=O)cc1 (centres unmarked) [Atenolol, reference compound]
Papp at 120 min (Caco-2 assays, read-out: Observed Papp of controls): ≤ 0.05 ×10⁻⁶ cm/s | Papp A→B at 120 min, 5 µM (Caco-2, 5 µM, 120 minutes): 0.21 ×10⁻⁶ cm/s
